The entries are a selection whose mix differs from that of the whole data set. At the low end of the ranking the order means little.
Target: T1, FEV (UniProt Q99581)
T1 sequence: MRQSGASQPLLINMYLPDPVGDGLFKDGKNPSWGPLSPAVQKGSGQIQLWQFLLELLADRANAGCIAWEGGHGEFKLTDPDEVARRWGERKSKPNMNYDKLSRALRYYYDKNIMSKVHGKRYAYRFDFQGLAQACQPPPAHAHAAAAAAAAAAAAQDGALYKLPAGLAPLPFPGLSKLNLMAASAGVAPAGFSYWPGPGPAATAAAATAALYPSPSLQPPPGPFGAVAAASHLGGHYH
Test: DAPPL (digital affinity profiling via proximity ligation, sequencing)
Conditions: 10 mM Tris-HCl pH 7.5, 50 mM NaCl, 1 mM DTT, 4% glycerol, room temperature, 30 min; GST-TFs on glutathione beads, 16-mer random dsDNA library, 0.1% …; high values mean tight binding; double strand, one strand shown; scale: fold enrichment (6-mer frequency, TF over GST control)

Protein sequences, listed by entry. Tags and fused reporters are not part of them. Lines headed by an entry give the natural chain unless they say otherwise; changes in a name come on top.
UniProt O43186: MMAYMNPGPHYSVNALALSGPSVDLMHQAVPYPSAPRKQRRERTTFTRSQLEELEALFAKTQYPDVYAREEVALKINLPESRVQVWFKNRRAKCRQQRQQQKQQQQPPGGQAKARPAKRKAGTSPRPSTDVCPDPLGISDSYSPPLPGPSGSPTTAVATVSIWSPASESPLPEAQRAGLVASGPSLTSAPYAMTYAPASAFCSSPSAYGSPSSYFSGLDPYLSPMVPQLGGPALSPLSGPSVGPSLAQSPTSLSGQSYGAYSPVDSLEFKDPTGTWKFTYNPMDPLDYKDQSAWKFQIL

Sequence | binding signal
ACAGAA | 0.927
CGTCCT | 1.38
GGTGGT | 0.938
GCAGGT | 0.821
TGAAGA | 0.961
GGCCTG | 0.993
CATGGC | 1.04
ATCGTT | 0.959
GTGATG | 0.932
GGCACC | 0.808
TCGAAA | 0.906
AAAGAT | 1.15
ACCCGT | 0.882
GCAATC | 1.05
ACACGG | 0.977
GGTCTG | 0.983
GTTAGC | 1
TGCGTT | 1
GTTGTC | 0.855
CGAAGA | 0.777
AGCGGC | 0.949
CTGACA | 1.19
GATATT | 1.04
TCACGT | 1.19
ATAGTC | 0.895
ACTCGG | 0.974
GTTCGT | 0.922
CGCGCA | 0.945
GGGCAT | 0.883

Target: CRX (UniProt O43186)
Test: as above
Conditions: 10 mM Tris-HCl pH 7.5, 50 mM NaCl, 1 mM DTT, 4% glycerol, room temperature, 30 min; GST-TFs on glutathione beads, 16-mer random dsDNA library, 0.1% …; high values mean tight binding; double strand, one strand shown; scale: fold enrichment (6-mer frequency, TF over GST control)

Sequence | binding signal
ACAGAA | 0.919
CGTCCT | 0.999
GGTGGT | 0.683
CGTCGC | 0.857
GCAGGT | 0.667
TGAAGA | 1
GGCCTG | 0.825
CATGGC | 0.842
ATCGTT | 1.14
GGTTAC | 0.716
GTGATG | 0.688
AATGGA | 0.984
GGCACC | 0.549
TCGAAA | 1.16
AAAGAT | 1.75
ACCCGT | 0.784
GCAATC | 1
AGCAAC | 0.838
ACACGG | 0.743
GGTCTG | 0.683

Sequence | binding signal
GTTAGC | 0.967
GGCAGC | 0.75
TGCGTT | 0.916
GTTGTC | 0.563
CACTCA | 0.945
CGAAGA | 0.863
AGCGGC | 0.917
CTGACA | 0.911
GATATT | 1.31
TCACGT | 1.15
ATAGTC | 0.974
CATCAA | 0.922
GGACAT | 0.739
ACTCGG | 0.816
TAGAAA | 1.58
CGTTTA | 1.19
GTTCGT | 0.769
CGCGCA | 0.806
GTTCGC | 0.906
GGGCAT | 0.769

Target: T2, ELF5 (UniProt Q9UKW6-2)
T2 sequence: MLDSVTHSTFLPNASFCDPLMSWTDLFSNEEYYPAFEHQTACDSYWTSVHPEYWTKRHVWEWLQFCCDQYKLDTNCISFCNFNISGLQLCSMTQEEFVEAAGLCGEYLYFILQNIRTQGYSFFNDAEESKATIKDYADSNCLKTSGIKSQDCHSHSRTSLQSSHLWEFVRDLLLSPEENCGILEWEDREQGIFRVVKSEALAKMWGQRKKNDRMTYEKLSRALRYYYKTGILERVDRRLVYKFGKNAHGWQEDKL
Test: as above
Conditions: 10 mM Tris-HCl pH 7.5, 50 mM NaCl, 1 mM DTT, 4% glycerol, room temperature, 30 min; GST-TFs on glutathione beads, 16-mer random dsDNA library, 0.1% …; high values mean tight binding; double strand, one strand shown; scale: fold enrichment (6-mer frequency, TF over GST control)

Sequence | binding signal
ACAGAA | 0.91
CGTCCT | 1.56
GGTGGT | 0.969
CGTCGC | 1.19
GCAGGT | 0.818
TGAAGA | 0.899
GGCCTG | 0.924
CATGGC | 0.9
ATCGTT | 0.994
GGTTAC | 0.944
GTGATG | 0.94
AATGGA | 0.985
GGCACC | 0.786
TCGAAA | 0.822
AAAGAT | 1.15
ACCCGT | 0.86
GCAATC | 0.936
AGCAAC | 1.07
ACACGG | 1.15
GGTCTG | 0.936

Sequence | binding signal
GTTAGC | 0.93
GGCAGC | 0.901
TGCGTT | 0.964
GTTGTC | 0.923
CACTCA | 1.12
CGAAGA | 0.713
AGCGGC | 0.92
CTGACA | 1.26
GATATT | 1.25
TCACGT | 1.19
ATAGTC | 0.899
CATCAA | 0.945
GGACAT | 1.24
ACTCGG | 0.921
TAGAAA | 0.964
CGTTTA | 1.07
GTTCGT | 0.956
CGCGCA | 0.978
GTTCGC | 1.01
GGGCAT | 0.83

— publication PMC7862700
